Data as given in the supplement of paper PMC10849652.
The other results are listed elsewhere or left out.

Sequences of proteins named here, by UniProt entry; tags and fusion partners are left off. A change or cut given only in a name is not applied to a line headed by its entry.
UniProt O75122: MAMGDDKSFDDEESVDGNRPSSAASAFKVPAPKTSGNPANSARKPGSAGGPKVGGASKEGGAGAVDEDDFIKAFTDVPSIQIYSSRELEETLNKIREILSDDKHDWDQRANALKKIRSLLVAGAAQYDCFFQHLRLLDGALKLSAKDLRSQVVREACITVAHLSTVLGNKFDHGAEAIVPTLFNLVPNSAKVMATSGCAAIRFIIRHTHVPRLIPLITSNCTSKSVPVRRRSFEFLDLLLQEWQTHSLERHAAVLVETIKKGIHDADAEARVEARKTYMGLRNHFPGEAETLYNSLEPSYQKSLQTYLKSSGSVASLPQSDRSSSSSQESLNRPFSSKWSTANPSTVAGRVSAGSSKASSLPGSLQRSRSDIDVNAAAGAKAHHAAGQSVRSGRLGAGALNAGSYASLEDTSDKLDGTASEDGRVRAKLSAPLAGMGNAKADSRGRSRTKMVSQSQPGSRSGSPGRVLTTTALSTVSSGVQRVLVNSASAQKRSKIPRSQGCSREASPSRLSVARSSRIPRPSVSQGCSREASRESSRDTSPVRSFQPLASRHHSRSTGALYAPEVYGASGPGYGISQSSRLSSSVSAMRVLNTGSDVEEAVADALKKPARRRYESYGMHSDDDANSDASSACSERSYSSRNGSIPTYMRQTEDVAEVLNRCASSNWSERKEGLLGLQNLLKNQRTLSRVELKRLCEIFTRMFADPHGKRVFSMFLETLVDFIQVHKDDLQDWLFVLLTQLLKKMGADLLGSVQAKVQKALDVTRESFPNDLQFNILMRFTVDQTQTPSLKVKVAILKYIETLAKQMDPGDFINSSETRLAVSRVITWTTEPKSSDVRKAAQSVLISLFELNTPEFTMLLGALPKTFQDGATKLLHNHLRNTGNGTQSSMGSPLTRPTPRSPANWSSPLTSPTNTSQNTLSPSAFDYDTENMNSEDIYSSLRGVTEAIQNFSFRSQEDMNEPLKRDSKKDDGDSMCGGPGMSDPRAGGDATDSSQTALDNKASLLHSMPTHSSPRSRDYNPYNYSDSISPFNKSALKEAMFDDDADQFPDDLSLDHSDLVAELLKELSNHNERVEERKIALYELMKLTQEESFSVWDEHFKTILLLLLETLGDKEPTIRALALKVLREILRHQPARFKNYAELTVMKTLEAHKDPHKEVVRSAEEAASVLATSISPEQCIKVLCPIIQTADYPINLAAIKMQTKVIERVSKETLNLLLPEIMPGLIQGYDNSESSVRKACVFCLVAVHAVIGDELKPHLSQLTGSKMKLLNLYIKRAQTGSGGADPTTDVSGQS
UniProt Q8NFW8: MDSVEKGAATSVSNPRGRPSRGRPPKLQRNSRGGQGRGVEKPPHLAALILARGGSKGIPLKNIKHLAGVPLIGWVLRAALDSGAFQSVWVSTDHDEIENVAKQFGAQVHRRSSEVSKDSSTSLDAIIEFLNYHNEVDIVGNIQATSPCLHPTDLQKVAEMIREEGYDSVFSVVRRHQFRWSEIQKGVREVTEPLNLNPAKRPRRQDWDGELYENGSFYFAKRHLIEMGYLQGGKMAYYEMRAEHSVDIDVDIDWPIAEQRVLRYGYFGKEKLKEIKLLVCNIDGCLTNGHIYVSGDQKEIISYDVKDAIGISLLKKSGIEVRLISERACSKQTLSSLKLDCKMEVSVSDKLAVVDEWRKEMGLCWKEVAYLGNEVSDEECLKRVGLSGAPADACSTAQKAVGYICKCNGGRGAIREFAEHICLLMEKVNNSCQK
UniProt Q8WUX9: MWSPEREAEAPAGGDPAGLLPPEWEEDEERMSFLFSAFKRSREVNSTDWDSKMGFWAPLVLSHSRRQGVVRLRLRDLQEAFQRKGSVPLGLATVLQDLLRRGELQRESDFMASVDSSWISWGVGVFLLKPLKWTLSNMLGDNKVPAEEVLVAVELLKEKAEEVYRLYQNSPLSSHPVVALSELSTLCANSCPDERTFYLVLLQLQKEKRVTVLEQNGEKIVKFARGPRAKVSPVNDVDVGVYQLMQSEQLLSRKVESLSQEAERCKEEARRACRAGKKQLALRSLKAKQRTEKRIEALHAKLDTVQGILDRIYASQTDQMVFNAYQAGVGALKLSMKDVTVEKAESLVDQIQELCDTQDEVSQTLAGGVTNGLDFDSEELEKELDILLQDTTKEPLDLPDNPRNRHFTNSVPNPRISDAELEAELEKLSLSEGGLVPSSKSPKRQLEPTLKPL
UniProt Q9BSY4: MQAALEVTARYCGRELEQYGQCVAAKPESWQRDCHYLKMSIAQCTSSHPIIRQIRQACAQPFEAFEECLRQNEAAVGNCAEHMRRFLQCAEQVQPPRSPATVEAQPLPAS
UniProt Q9NY35: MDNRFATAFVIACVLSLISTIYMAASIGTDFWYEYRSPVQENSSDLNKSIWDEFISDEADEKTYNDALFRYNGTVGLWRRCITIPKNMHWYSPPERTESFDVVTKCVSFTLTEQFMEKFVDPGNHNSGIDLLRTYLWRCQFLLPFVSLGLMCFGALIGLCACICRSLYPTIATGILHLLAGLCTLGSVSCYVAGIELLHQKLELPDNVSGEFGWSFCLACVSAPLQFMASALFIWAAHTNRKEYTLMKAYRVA
UniProt Q9NWW5: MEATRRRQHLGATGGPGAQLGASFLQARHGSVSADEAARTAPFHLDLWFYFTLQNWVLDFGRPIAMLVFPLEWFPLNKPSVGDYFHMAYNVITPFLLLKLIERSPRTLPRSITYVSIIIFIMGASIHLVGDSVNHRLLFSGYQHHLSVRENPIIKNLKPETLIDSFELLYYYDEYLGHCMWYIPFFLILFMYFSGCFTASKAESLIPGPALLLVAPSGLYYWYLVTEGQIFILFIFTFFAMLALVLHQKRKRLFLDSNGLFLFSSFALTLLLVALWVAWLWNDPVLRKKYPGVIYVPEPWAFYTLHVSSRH
UniProt Q9UKJ5: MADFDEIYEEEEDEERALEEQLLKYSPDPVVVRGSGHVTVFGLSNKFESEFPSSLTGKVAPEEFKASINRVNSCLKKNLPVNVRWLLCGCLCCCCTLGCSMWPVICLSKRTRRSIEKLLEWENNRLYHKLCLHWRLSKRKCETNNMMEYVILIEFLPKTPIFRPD
UniProt Q9P2D1: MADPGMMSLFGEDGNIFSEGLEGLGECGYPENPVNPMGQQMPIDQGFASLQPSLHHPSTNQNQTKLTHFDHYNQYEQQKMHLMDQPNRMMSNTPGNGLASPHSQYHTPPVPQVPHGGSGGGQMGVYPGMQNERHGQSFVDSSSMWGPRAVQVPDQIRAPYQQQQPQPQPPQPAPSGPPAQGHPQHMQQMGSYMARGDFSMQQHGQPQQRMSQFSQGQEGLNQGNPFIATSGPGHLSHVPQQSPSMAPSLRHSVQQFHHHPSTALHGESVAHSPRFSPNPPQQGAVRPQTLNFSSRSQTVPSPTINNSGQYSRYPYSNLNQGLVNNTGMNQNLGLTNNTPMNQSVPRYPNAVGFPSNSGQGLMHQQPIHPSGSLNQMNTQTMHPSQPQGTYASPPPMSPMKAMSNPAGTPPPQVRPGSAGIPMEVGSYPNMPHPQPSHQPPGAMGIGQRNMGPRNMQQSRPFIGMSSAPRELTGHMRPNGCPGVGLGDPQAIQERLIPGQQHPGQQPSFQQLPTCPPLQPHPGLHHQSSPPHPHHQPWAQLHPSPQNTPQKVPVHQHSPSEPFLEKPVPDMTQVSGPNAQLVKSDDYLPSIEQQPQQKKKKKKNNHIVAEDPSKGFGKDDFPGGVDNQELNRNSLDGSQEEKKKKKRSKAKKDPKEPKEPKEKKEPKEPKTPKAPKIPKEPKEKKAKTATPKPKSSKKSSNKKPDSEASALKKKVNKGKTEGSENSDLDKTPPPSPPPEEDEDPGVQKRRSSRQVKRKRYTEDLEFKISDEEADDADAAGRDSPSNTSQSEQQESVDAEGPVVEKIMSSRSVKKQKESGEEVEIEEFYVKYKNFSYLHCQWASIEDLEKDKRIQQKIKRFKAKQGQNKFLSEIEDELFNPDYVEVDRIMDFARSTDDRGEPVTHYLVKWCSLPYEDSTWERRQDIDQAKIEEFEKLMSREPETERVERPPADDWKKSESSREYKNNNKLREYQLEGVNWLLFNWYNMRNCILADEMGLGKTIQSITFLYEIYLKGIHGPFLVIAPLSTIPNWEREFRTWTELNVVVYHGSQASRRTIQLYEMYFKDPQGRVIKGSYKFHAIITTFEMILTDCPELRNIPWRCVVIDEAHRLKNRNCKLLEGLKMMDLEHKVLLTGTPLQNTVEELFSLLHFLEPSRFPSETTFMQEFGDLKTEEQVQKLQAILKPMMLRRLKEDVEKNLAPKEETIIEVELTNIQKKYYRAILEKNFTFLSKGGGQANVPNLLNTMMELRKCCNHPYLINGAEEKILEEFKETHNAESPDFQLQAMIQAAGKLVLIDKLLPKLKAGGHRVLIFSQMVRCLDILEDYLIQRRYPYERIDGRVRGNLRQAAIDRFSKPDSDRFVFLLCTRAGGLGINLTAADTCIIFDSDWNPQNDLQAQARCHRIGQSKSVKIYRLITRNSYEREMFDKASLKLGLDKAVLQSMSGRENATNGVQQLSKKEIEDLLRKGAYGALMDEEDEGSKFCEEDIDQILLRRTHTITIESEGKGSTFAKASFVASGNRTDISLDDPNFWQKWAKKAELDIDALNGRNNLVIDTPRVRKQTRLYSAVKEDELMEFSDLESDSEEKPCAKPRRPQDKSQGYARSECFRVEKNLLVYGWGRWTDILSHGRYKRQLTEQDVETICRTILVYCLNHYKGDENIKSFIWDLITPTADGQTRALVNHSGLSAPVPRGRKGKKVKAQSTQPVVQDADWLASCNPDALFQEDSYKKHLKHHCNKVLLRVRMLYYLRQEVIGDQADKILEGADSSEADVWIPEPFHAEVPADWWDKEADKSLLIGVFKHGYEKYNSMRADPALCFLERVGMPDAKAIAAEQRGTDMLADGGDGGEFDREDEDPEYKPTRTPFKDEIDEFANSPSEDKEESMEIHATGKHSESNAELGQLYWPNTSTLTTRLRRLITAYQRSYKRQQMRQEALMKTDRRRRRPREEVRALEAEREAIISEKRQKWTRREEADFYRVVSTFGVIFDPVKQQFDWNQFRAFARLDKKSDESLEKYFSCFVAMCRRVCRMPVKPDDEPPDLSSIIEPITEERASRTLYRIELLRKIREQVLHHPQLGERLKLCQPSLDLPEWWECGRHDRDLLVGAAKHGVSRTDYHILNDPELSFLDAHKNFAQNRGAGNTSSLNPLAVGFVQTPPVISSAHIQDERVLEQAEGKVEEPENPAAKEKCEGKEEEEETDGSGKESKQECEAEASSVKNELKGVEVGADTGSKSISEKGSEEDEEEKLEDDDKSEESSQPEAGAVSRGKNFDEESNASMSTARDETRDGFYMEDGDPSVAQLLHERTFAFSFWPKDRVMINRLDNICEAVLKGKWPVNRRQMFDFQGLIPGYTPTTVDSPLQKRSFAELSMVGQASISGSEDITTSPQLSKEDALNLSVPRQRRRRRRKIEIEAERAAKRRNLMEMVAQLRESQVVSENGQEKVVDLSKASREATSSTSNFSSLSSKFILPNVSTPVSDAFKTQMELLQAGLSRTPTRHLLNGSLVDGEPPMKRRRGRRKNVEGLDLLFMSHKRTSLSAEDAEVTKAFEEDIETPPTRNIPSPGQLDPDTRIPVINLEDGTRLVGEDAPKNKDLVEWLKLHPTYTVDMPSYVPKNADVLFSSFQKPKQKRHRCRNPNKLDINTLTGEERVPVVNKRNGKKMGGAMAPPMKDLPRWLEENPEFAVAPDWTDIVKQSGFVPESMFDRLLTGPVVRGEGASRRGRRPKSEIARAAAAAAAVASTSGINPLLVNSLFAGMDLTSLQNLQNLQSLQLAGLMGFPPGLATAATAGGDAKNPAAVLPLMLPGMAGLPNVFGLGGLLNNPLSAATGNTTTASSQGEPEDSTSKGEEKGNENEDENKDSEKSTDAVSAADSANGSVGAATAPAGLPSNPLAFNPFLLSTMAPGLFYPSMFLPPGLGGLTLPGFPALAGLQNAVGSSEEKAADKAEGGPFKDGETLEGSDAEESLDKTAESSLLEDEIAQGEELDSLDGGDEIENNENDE

Legend:
Test in all cases: log2 fold change, soluble protein after heating vs DMSO (PISA); higher = thermal stabilisation; K562 lysate, 10 uM; active = over 0.2 and 3.5 SD of the protein, either way, in both replicates (recomputed)
[1] = compound: Cc1cn(-c2cc(NC(=O)c3ccc(C)c(Nc4nccc(-c5cccnc5)n4)c3)cc(C(F)(F)F)c2)cn1 [nilotinib]
Summary of the method: (§1)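 K562 pellets were dounce-homogenised in PBS pH 7.4 containing 1 mM MgCl2, and the crude extract, at 1 mg/mL protein, was exposed to 10 μM compound for 30 min. Aliquots were heated for 3 min across 48°C-58°C, pooled, brought to 0.5% NP-40 at 4°C and spun at 21,000xg for 90 min, with the supernatant taken as soluble protein. TMTpro 16plex LC-MS/MS with equalised channel sums quantified that protein. Values are log-two fold changes in thermal stability relative to solvent controls, taken from duplicates.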

[2] = compound: Cc1nc(Nc2n[nH]c3c2CN(C(=O)N[C@H](CN(C)C)c2ccccc2)C3(C)C)c2sccc2n1
Summary of the method: as §1

[3] = compound: Cc1nc(Nc2ncc(C(=O)Nc3c(C)cccc3Cl)s2)cc(N2CCN(CCO)CC2)n1 [dasatinib]
Summary of the method: as §1

[4] = compound: Cc1ncc(-c2ccnc(Nc3ccc(S(C)(=O)=O)cc3)n2)n1C(C)C
Summary of the method: as §1

[5] = compound: Cn1cc(-c2ccc3c(c2)CCN3C(=O)Cc2cccc(C(F)(F)F)c2)c2c(N)ncnc21
Summary of the method: as §1

[6] = compound: Cn1cc(CNCC2CCN(c3ncc(C(=O)NO)cn3)CC2)c2ccccc21 [quisinostat]
Summary of the method: as §1

[7] = compound: Cn1cncc1[C@@](N)(c1ccc(Cl)cc1)c1ccc2c(c1)c(-c1cccc(Cl)c1)cc(=O)n2C [tipifarnib]
Summary of the method: as §1

[8] = compound: NC(=O)Nc1cc(-c2cccc(F)c2)sc1C(=O)N[C@H]1CCCNC1
Summary of the method: as §1

[9] = compound: NC(=O)c1cnc(N[C@@H]2CCCC[C@@H]2N)nc1Nc1cccc(-n2nccn2)c1
Summary of the method: as §1

[10] = compound: NC1(c2ccc(-c3nc4ccn5c(=O)[nH]nc5c4cc3-c3ccccc3)cc2)CCC1
Summary of the method: as §1

Measured: log2 fold change

CLASP2 isoform 3 (UniProt O75122)
inactive: [1] 0.013 | [2] -0.004 | [3] -0.024 | [4] 0.02 | [5] 0.021 | [6] -0.042 | [7] -0.063 | [8] -0.07 | [9] -0.007 | [10] 0.032

CMAS (UniProt Q8NFW8)
inactive: [1] 0.005 | [2] 0.018 | [3] -0.012 | [4] 0.031 | [5] 0 | [6] -0.006 | [7] -0.007 | [8] 0.039 | [9] -0.011 | [10] -0.061

CHMP7 (UniProt Q8WUX9)
inactive: [1] 0.029 | [2] 0.005 | [3] -0.075 | [4] 0.005 | [5] 0.053 | [6] 0.025 | [7] -0.039 | [8] 0.024 | [9] -0.047 | [10] 0.007

CHD4, A0A2R8Y521
inactive: [1] -0.125 | [2] -0.088 | [3] -0.09 | [4] -0.156 | [5] -0.247 | [7] 0.391 | [9] -0.174

CHCHD5 (UniProt Q9BSY4)
inactive: [1] 0.027 | [2] -0.208 | [3] 0.065 | [4] -0.128 | [5] -0.082 | [6] 0.344 | [7] 0.028 | [8] 0.097 | [10] 0.1

CLDND1 (UniProt Q9NY35)
inactive: [1] 0.077 | [2] 0.02 | [3] 0.069 | [4] -0.052 | [5] 0.076 | [6] -0.012 | [7] -0.058 | [8] -0.08 | [9] 0.03 | [10] 0.023

CLN6 (UniProt Q9NWW5)
inactive: [1] 0.036 | [2] 0.061 | [3] -0.021 | [4] 0.051 | [5] 0.009 | [6] 0.132 | [7] -0.06 | [8] -0.1 | [10] 0.01

CHIC2 (UniProt Q9UKJ5)
inactive: [1] -0.063 | [2] -0.029 | [3] -0.258 | [4] 0.073 | [5] 0.091 | [7] -0.134 | [9] 0.043 | [10] -0.067

CHD7 (UniProt Q9P2D1)
inactive: [1] 0.06 | [2] 0.016 | [3] -0.107 | [4] -0.087 | [5] 0.089 | [6] 0.013 | [7] -0.05 | [8] 0.002 | [9] -0.017 | [10] -0.02
